The campaign covered roughly 320,000 compounds. About 620 (0.19%) were called active. Inconclusive means that the source gave no clear call. Such entries were picked first, then a sample of the others. No stated cut-off is given here; in the data, active means activation above about 80%; inconclusive means between about 30% and that limit; inactive means weaker than that.
target: Transient receptor potential cation channel subfamily V member 1 (Homo sapiens) (UniProt Q8NER1); assay: HTS Assay for Compounds that Act as Agonists of the Vanilloid Receptor 1; conditions: TRPV1-expressing cells, Fluo-8 calcium influx, agonist mode; at 8.33 µM, hits give high values; further: 0% is about no effect
In short: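 TRPV1-expressing cells were cultured overnight at 35.5C and loaded with Fluo-8 calcium dye for 40 to 90 min at room temperature. After a 10 s baseline, compound was added and calcium influx was read kinetically for 3 min (ex 480/em 520 nm).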

The chains behind the UniProt entries cited, without tags or fusion partners.
UniProt Q8NER1, whole entry, looked up: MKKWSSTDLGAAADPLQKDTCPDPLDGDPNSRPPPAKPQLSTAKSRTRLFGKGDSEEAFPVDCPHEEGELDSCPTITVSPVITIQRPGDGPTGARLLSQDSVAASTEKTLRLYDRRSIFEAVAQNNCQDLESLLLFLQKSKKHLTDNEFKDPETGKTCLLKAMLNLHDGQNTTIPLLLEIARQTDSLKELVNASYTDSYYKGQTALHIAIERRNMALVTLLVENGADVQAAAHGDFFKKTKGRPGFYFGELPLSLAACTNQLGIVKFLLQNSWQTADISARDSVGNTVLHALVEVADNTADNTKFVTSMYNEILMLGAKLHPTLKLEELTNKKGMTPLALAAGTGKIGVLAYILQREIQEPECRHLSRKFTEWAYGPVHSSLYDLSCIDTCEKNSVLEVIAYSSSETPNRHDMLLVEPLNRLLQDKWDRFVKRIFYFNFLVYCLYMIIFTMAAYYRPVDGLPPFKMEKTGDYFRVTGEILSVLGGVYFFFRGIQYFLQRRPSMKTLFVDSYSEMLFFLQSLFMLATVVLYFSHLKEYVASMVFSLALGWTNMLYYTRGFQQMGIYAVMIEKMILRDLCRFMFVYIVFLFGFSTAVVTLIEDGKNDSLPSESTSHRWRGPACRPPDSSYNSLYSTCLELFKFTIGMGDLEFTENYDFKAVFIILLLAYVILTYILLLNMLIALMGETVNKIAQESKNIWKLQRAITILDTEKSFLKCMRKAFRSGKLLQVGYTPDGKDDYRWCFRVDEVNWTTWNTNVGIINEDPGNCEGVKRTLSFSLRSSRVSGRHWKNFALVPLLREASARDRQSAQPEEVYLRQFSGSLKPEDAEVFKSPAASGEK

| SMILES | activation |
| --- | --- |
| CC(C)c1ccc(/C=N/NC(=O)c2ccccc2Cl)cc1 | inconclusive: 54.4% |
| CC(NC(=O)Nc1ccc(F)cc1F)c1ccc2c(c1)OCO2 (stereo not drawn) | inconclusive: 38.2% |
| O=C(NCCc1csc(-c2cccc(F)c2)n1)c1ccco1 | inconclusive: 54.2% |
| CCN1C(=O)/C(=C/c2ccc(N3CCCC3)cc2)NC1=S | inconclusive: 59.4% |
| CCOC(=O)Nc1nc(-c2ccc(F)cc2F)cs1 | inconclusive: 42.4% |
| O=C(Nc1ccc(N2CCOCC2)c(Cl)c1)c1ccc([N+](=O)[O-])o1 | inconclusive: 53.5% |
| CCOC(=O)C1=C(CC)OC(N)=C(C#N)C1c1cc(OC)ccc1OC (stereo not drawn) | inconclusive: 35.1% |
| CC(C)(Oc1ccc(Cl)cc1)C(=O)NCC1CCCO1 (stereo not drawn) | inconclusive: 50.6% |
| COC(=O)c1ccc(C(=O)OC)c(NC(=O)C(C)C)c1 | inconclusive: 37.7% |
| COC(=O)C1(CC2CC(c3ccc(Cl)cc3)=NO2)CCN(C(=O)OC(C)(C)C)CC1 (stereo not drawn) | inconclusive: 36.7% |
| COC(=O)N1C(=O)[C@@](CC(C)C)(c2ccccc2)N1C(=O)OC | inactive: 6.21% |
| CCc1ccc(NC(=O)Nc2ccsc2C(=O)OC)cc1 | inconclusive: 44% |
| Cc1ccc(C(=O)NC(=S)NCc2ccccc2)cc1 | inconclusive: 36.1% |
| COC(=O)c1c(-c2cccc(OC)c2)csc1N | inactive: -3.8% |
| O=C(CCC(=O)N(CC(=O)NC1CCCC1)Cc1ccccc1Cl)Nc1nccs1 | inconclusive: 34.9% |
| CCCn1c(N2CCN(C(=O)Nc3ccccc3)CC2)nc2ccccc21 | inconclusive: 74.1% |
| Cc1ccc2c(c1)C(c1ccncc1)=NNC(c1ccc(C(C)C)cc1)=N2 | inconclusive: 30.4% |
| CC(=O)c1ccc(NC(=O)CCCN2C(=O)C(c3ccccc3)Oc3cccnc32)cc1 (stereo not drawn) | inconclusive: 65.5% |
| Cc1cc(N2CCCCC2)n2ncc(-c3ccc(Cl)cc3)c2n1 | inactive: 1.43% |
| CC(C)c1ccc(N=Cc2c(O)c3ccccc3oc2=O)cc1 | active: 82.6% |
| Cc1cccn2c(=O)c3cc(C(=O)NCc4ccco4)c(=N)n(C4CCCC4)c3nc12 | inconclusive: 36.3% |
| CCCC(=N)C1=C(O)CC(CC(C)SCC)CC1=O (stereo not drawn) | inconclusive: 32.5% |
| CC(NC(=O)CN(C)Cc1ccc(Br)cc1)c1ccccc1 (stereo not drawn) | inconclusive: 54% |
| CC(=Nc1ccc(O)cc1)c1sc2ccccc2c1O | inconclusive: 35.6% |

Four records picked at random from the list so far:

| SMILES | activation |
| --- | --- |
| O=C(NCCc1csc(-c2cccc(F)c2)n1)c1ccco1 | inconclusive: 54.2% |
| CCCC(=N)C1=C(O)CC(CC(C)SCC)CC1=O (stereo not drawn) | inconclusive: 32.5% |
| O=C(CCC(=O)N(CC(=O)NC1CCCC1)Cc1ccccc1Cl)Nc1nccs1 | inconclusive: 34.9% |
| CC(C)c1ccc(N=Cc2c(O)c3ccccc3oc2=O)cc1 | active: 82.6% |

Later entries

| SMILES | activation |
| --- | --- |
| O=C(Oc1c(CN2CCOCC2)cc(Cl)c2cccnc12)c1ccccc1Cl | inactive: 19.7% |
| CC(=O)OCc1ccccc1Sc1ccccc1C(=O)NCc1ccccc1 | inactive: -1.01% |
| CCOC(=O)C1=C(O)/C(=C/c2cc(OC)c(O)c(OC)c2)SC1=Nc1ccc(OC)cc1 | inconclusive: 67.8% |
| CN1CCN(CCCNC(=O)c2cc3c(-c4ccc(Cl)cc4)nn(C)c3s2)CC1 | inactive: 1.54% |
| CC(C)Oc1ccc(S(=O)(=O)N2CCCCC2)cc1NC(=O)C1CCCC1 | inconclusive: 67.3% |
| O=C1CCCc2ccccc2N1Cc1ccccc1Cl | inactive: 22.3% |
| COc1ccc(/C=C/C(=O)c2ccccn2)cc1 | inconclusive: 69.5% |
| Cc1cnn(-c2nc(-c3ccccc3)cc(-c3ccccc3)n2)c1 | inconclusive: 72% |
| CC(C)Sc1nnc(Nc2ccccc2)s1 | inconclusive: 46.8% |
| Cc1cccc(CC2S/C(=N/N=C/c3ccco3)N(c3ccccc3)C2=O)c1 (stereo not drawn) | inactive: 10.6% |
| Cc1nc(-c2ccc(NS(=O)(=O)c3ccccc3)cc2)cs1 | inconclusive: 34.4% |
| O=C(c1cc(-c2ccc(Cl)c(Cl)c2)on1)N1CCCCCC1 | inconclusive: 46.2% |
| COC(=O)Nc1ccc2c(c1)N(C(=O)CCCl)c1ccccc1S2 | inconclusive: 30.6% |
| Cc1cc2nc3c(=O)n(Cc4ccccc4)c(=O)[nH]c3nc2cc1N | active: 90.7% |
| Cc1ccc(-c2noc(CCC(=O)NC3CCN(Cc4ccccc4)CC3)n2)cc1 | inactive: -2.34% |
| CCCCc1cc(=O)oc2cc(O)cc(O)c12 | inactive: -0.276% |
| CSCc1ccc(C(=O)NCc2ccccc2)cc1 | inconclusive: 44.9% |
| O=C(CCSCc1cccc(F)c1)NCCc1ccccc1 | inconclusive: 55.7% |
| Cc1ccc(C)c(OCCCC(=O)N2CCOCC2)c1 | inconclusive: 60.5% |
| Nc1c(C(=O)N2CCOCC2)sc2nc3c(cc12)CCCC3 | inactive: 3.52% |
| CCc1ccc(Nc2nnc(SCC(=O)Nc3cccnc3Cl)s2)cc1 | inconclusive: 44.2% |
| CC(C)(C)C1CCc2onc(C(=O)Nc3cccc(O)c3)c2C1 (stereo not drawn) | inconclusive: 69.2% |
| N#CC(C#N)=C1C=CC=CN1/C(=C\c1ccco1)C(=O)c1ccc(Cl)cc1 | inconclusive: 34.7% |
| O=C(COc1ccccc1)NC1CCCCCCC1 | inconclusive: 42.6% |

| SMILES | activation |
| --- | --- |
| Cc1nnc(Nc2ccc(Cl)cc2)s1 | inconclusive: 45.6% |
| CCc1sc(C(=O)Nc2cccc(-n3cnnn3)c2)cc1C | inconclusive: 63.5% |
| N#Cc1nc(-c2cccs2)oc1N1CCN(Cc2ccccc2)CC1 | inconclusive: 48% |
| CCN(CC)c1ccc(NC(=O)c2cccc(F)c2)c(C)c1 | inconclusive: 62.2% |
| O=C(CCCSc1nc2ccccc2[nH]1)NC1CCCCC1 | inconclusive: 33.1% |
| O=C1CCC2S/C(=C/Nc3ccc(C(F)(F)F)cc3)C(=O)N12 (stereo not drawn) | inconclusive: 71.8% |
| Cc1cc(C)c2nc(C(F)(F)F)nc(NCCCN3CCCC3=O)c2c1 | inconclusive: 36% |
| O=C1C=C(c2ccccc2)C(O)(c2ccccc2)C1 (stereo not drawn) | inconclusive: 30.9% |
| C#CC(CC)(CC)NC(=O)c1cc(S(=O)(=O)N2CCCCC2)ccc1N1CCOCC1 | inconclusive: 61.7% |
| CC(C)n1c(O)c(N=NC(=O)CNC(=O)Cc2ccc(Cl)cc2)c2ccccc21 | inconclusive: 31% |
| N/C(=N\OC(=O)c1ccc2c(c1)OCO2)c1ccncc1 | inconclusive: 38.6% |
| CCS(=O)(=O)N1CCN(c2ccc(C(=O)NC3C4CC5CC(C4)CC3C5)cc2[N+](=O)[O-])CC1 (stereo not drawn) | inconclusive: 39.4% |
| Cc1ccc(C)c(N(CC(=O)NC2CCCC2)C(=O)c2oc(C(C)(C)C)cc2C)c1 | inconclusive: 45.9% |
| CC(C)(C)C(=O)OCc1cn(-c2ccc(Cl)cc2)nn1 | inconclusive: 41.5% |
| COc1ccc(CCn2c(=N)c(C(=O)NC3CCCC3)cc3c(=O)n4cccc(C)c4nc32)cc1 | inconclusive: 36.6% |
| COc1ccc(N(C(=O)COc2ccccc2)C2C=CS(=O)(=O)C2)cc1 (stereo not drawn) | inactive: -16.4% |
| CC(Cc1ccccc1)NC(=O)c1ccc([N+](=O)[O-])cc1 (stereo not drawn) | inconclusive: 61.3% |
| CCN(CC)C(=O)CN1C(=O)C2(OCC(C)(c3ccccc3)CO2)c2ccccc21 (stereo not drawn) | inconclusive: 38.3% |
| Cc1csc(SCC(=O)Nc2ccc(C)c(F)c2)n1 | inconclusive: 41.8% |
| CCCN1C(=O)/C(=C2\SC(N3CCCCC3)=NC2=O)c2ccccc21 | inconclusive: 36.7% |
| Cc1cc(=O)oc2c3c(cc(OCC(=O)NCc4ccncc4)c12)OC(C)(C)CC3 | inconclusive: 62% |
| Cc1cccc(Nc2nc(-c3ccc(O)c(O)c3)cs2)n1 | inactive: 5.93% |
| NC(=O)CCCCC(=O)OCCCc1cccs1 | inconclusive: 34.7% |
| COc1ccc2c3n(nc2c1)CCN=C3c1ccc(Cl)cc1 | inactive: -2.55% |

| SMILES | activation |
| --- | --- |
| COC(=O)c1[nH]c2ccc(C)cc2c1NC(=O)CN1CCN(c2ccc(F)cc2)CC1 | inconclusive: 67.2% |
| N#CC(C(=O)NC1CCCCC1)=C1CCCCCC1 | inactive: -0.85% |
| COC(=O)c1ccc(N2CCN(C)CC2)c(NC(=O)COc2ccccc2)c1 | inconclusive: 40.5% |
| CC(=O)C1=C(c2cccc([N+](=O)[O-])c2)N(C(C)=O)n2c(C)nnc2S1 | inactive: -1.71% |
| CN(c1ccccc1)S(=O)(=O)c1ccc(NC(=O)C2CC2)cc1 | inconclusive: 45.9% |
| O=C(Cc1ccc(F)cc1)Nc1nc(-c2ccc(F)cc2)cs1 | active: 104% |
| COc1ccc(N2CC(C(=O)Nc3ccccc3C(=O)NCc3ccco3)CC2=O)cc1 (stereo not drawn) | inactive: 2.57% |
| COc1ccc(/C=N/NC(=O)Cc2cccs2)cc1 | inactive: 5.1% |
| Cc1ccc[n+](CC(=O)c2ccccc2)c1 | inactive: -2.16% |
| CCOc1ccc2c(c1)c(N=NC(N)=S)c(O)n2C | inactive: -1.99% |
| O=C(Nc1ccon1)c1ccc(S(=O)(=O)N2CCCCCC2)cc1 | inconclusive: 44.4% |
| CCC(=O)Nc1ccc(Cl)c(NC(=S)NC(C)=O)c1 | inactive: -4.33% |
| Nc1ccc2nc(-c3ccc(Cl)cc3)[nH]c2c1 | inactive: 20% |
| FC(F)(F)c1cnc(Oc2ccccc2-c2nnc(-c3ccc(Cl)cc3)o2)c(Cl)c1 | inconclusive: 33.9% |
| CC(C)N(CCNC(=O)c1cn(C)c2ccc(S(=O)(=O)N(C)C)cc2c1=O)Cc1ccccc1 | inconclusive: 33% |
| CN1CCC(N(C)CC(=O)Nc2cccc(Oc3ccccc3)c2)CC1 | inactive: 0.478% |
| O=C(Nc1cccc(S(=O)(=O)N2CCCCCC2)c1)c1cc(=O)c2ccccc2o1 | inactive: 23.4% |
| c1ccc(CSc2nc3ccccc3[nH]2)cc1 | inconclusive: 47.9% |
| O=C(CCN1CCN(C(c2ccccc2)c2ccccc2)CC1)N/N=C/c1ccc(O)cc1 | inconclusive: 54.4% |
| CCOC(=O)Cn1c(=O)n(Cc2ccc(OC)cc2)c(=O)c2cccnc21 | inconclusive: 61.7% |
| COc1ccccc1CNC(=O)CCS(=O)(=O)c1ccc(Cl)cc1 | inconclusive: 33.9% |

Reference: PubChem BioAssay AID540275 (National Center for Advancing Translational Sciences (NCATS), 2011)
